PubChem BioAssay AID1439 (NMMLSC, 2008)
Out of some 220,000 compounds screened, about 770 (0.35%) were called active. Inconclusive results, whose numbers are uncertain, are shown with a selection of clear calls. Cut-off read from the data, not from the text of the source: active = binding response below about 49% or above about 150%; inconclusive = no clear call, values can overlap the other calls; inactive = in between.

Protein sequences, listed by entry. Tags and fused reporters are not part of them.
UniProt P09471, whole entry, looked up: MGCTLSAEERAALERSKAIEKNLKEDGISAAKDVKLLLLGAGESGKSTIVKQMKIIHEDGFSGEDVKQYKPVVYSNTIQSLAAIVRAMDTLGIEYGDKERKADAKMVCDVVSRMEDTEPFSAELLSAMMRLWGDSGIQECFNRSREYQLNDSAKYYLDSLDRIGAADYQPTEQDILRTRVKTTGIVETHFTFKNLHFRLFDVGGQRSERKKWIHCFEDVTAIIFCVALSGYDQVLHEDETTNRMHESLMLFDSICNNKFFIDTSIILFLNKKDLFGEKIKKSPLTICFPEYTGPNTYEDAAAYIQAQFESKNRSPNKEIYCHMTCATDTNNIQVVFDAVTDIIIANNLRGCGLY

What follows are molecules tested against Guanine nucleotide-binding protein G(o) subunit alpha (Homo sapiens) (UniProt P09471) (assay: RGS7-Galphao binding modulators, primary screen, biochemical, multiplexed bead flow cytometry (AID 1439;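 note: fluorescent Galphao held in activated GDP-AlF4 state binding bead-coupled RGS7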)). Details: at 10 µM, actives lie on both sides.

| SMILES | binding response (% of control) |
| --- | --- |
| Cc1ccc(NC(=O)CN(C)CC(=O)NC2CCCc3ccccc32)cc1 (stereo unspecified) | inconclusive: 121% |
| CC(=O)N1CCC(N(C(=O)Nc2ccc(Cl)cc2)C(C)C)CC1 | inconclusive: 121% |
| CC(C)N(C(=O)COC(=O)c1ccc([N+](=O)[O-])cc1)c1ccccc1 | inconclusive: 106% |
| Cc1nc(-c2ccc(Cl)cc2)sc1C(=O)NN | inconclusive: 128% |
| O=C(N/N=C/c1ccco1)c1cc(-c2ccc(Cl)cc2)n[nH]1 | inconclusive: 83.6% |
| CN(C)C(=O)c1cc2cc(Br)ccc2s1 | inconclusive: 76.6% |
| O=C(Nc1nnc(-c2ccco2)o1)c1ccc([N+](=O)[O-])s1 | inactive: 104% |
| Cc1ccc(NC(=O)Nc2ccccc2CC[N+](=O)[O-])cc1 | inactive: 118% |
| Cn1c(N)c(C(=O)COC(=O)c2ccccn2)c(=O)n(C)c1=O | inconclusive: 74.9% |
| CCC/C(C)=C/c1ccc(CC)cn1 | inconclusive: 96.8% |
| Nc1ncccc1OCc1ccc(Cl)c(Cl)c1 | inconclusive: 96.1% |
| CC(C)(C)c1ccc(/C=C2\SC(=O)N(CCNC(=O)c3cccc(S(=O)(=O)N4CCOCC4)c3)C2=O)cc1 | inactive: 103% |
| Cc1ccc(N2NC3(CCN(C(N)=O)CC3)NC2=O)cc1 | inactive: 96.3% |
| COc1cc(CN2CCN(Cc3ccc([N+](=O)[O-])cc3)CC2)c([N+](=O)[O-])cc1OC | inconclusive: 152% |
| Cc1cc(Cl)ccc1N(CC(=O)NCCSCc1ccco1)S(C)(=O)=O | inactive: 102% |
| O=C(Nc1nccs1)C1CCCCN1S(=O)(=O)c1ccccc1 (stereo unspecified) | inconclusive: 98.1% |
| C/C(=N\Nc1cccc(C(F)(F)F)c1)c1ccc(O)cc1 | inconclusive: 115% |
| O=c1cc(-c2ccccc2)nc(/C=C/c2ccccc2)[nH]1 | inconclusive: 94.9% |
| CCOC(=O)CC(NC(=O)Cn1nnc(-c2ccccc2F)n1)c1ccc(OC)cc1 (stereo unspecified) | inconclusive: 122% |
| Cc1sc2nc(COC(=O)c3ccc(O)cc3)[nH]c(=O)c2c1C | inconclusive: 71.8% |
| O=C(Cc1coc(-c2ccc(F)cc2)n1)Nc1ccccc1 | inactive: 101% |
| COc1ccc(NC(=O)c2cccc(Cn3cc(Br)c([N+](=O)[O-])n3)c2)c(C)c1 | inconclusive: 81.7% |
| COc1ccc2c(CC(=O)OCC(=O)NC(N)=O)coc2c1 | inconclusive: 116% |

Shown field by field: part of the list above.
O=C(Nc1nccs1)C1CCCCN1S(=O)(=O)c1ccccc1 (stereo unspecified)
  binding response (% of control): inconclusive: 98.1%
C/C(=N\Nc1cccc(C(F)(F)F)c1)c1ccc(O)cc1
  binding response (% of control): inconclusive: 115%
O=c1cc(-c2ccccc2)nc(/C=C/c2ccccc2)[nH]1
  binding response (% of control): inconclusive: 94.9%

Following part.

| SMILES | binding response (% of control) |
| --- | --- |
| CC1=C(C(=O)N2CCOCC2)C(c2ccc(Br)cc2)NC(=S)N1c1ccccc1 (stereo unspecified) | inconclusive: 115% |
| Cc1nn(CC2CC2)c(=O)n1-c1ccc(Cl)cc1 | inconclusive: 92% |
| Cc1c(NS(C)(=O)=O)cccc1-c1nc2cccnc2s1 | inconclusive: 91.8% |
| OC(COc1ccc2c(c1)OCO2)CN1CCCC1 (stereo unspecified) | inconclusive: 89.5% |
| CCCC(=O)Nc1nc(C)c(-c2csc(Nc3cc(OC)ccc3OC)n2)s1 | inactive: 121% |
| O=c1c(Cl)c(NS(=O)(=O)c2ccccc2)cnn1-c1ccccc1 | inconclusive: 58.2% |
| Cn1c(=O)c([N+](=O)[O-])c(NC2CCS(=O)(=O)C2)c2ccccc21 (stereo unspecified) | inconclusive: 84.7% |
| CC(NC(=O)c1ccc(N2CCNCC2)c([N+](=O)[O-])c1)C12CC3CC(CC(C3)C1)C2 (stereo unspecified) | inconclusive: 96% |
| COc1ccc(C(C)=O)cc1CSc1nc2nc(C)cc(C)n2n1 | inconclusive: 93.7% |
| CNC(=O)NC(=O)COC(=O)c1n[nH]c2ccccc12 | inconclusive: 158% |
| Cn1c(=O)c2c(ncn2CC(=O)N/N=C/C=C\c2ccccc2[N+](=O)[O-])n(C)c1=O | inconclusive: 248% |
| Cc1ccc(NC(=O)c2ccc(NCc3ccco3)c([N+](=O)[O-])c2)cc1Cl | inactive: 101% |
| CC(C)C[C@H](NC(=O)c1[nH]cnc1C(=O)N[C@@H](Cc1ccccc1)C(=O)OC(C)(C)C)C(=O)OC(C)(C)C | inconclusive: 80.5% |
| COc1ccc(CCNC(=O)C(NS(=O)(=O)c2ccc3c(c2)CCN3C(C)=O)C(C)C)cc1OC (stereo unspecified) | inactive: 103% |
| CSc1sc(C(=O)NCC2CC2)c(-c2cccs2)c1C#N | inconclusive: 62.8% |
| CCCCN(Cc1ccccc1)S(=O)(=O)c1ccc2c(c1)n(C)c(=O)c(=O)n2C | inconclusive: 96% |
| COc1ccc(CCc2nnc(CCC(=O)NCc3cnc4ccccn34)o2)cc1 | inactive: 97% |
| CC(C)(C)NC(=O)c1cccnc1Sc1ccccc1 | inconclusive: 107% |
| CCCCNC(=O)NNC(=O)c1cc(C)on1 | inconclusive: 86.2% |
| CCCCc1ccc(NC(=O)N[C@@H](C)C(=O)O)cc1 | inconclusive: 108% |
| Cc1ccc(NC(=O)c2ccc(Cl)cc2Cl)cc1O | inconclusive: 180% |
| CCCCC1CCCC12NC(=O)NC2=O (stereo unspecified) | inconclusive: 111% |
| COc1cc(NC(=O)c2ccc(N)nc2)cc(C(=O)Nc2cccc(C(F)(F)F)c2)c1 | inconclusive: 117% |
